From PubChem BioAssay AID540276 (National Center for Advancing Translational Sciences (NCATS), 2011)
Where “and” joins values, the source holds several entries; their conditions need not be identical. Equal values may be shown once. About 5,400 (1.8%) of roughly 300,000 compounds were called active. Inconclusive results, whose numbers are uncertain, are shown with a selection of clear calls. Calls come from the whole dose curve; tested in HEK293 cells. Potencies beside an inconclusive call are fits to weak or partial responses and may not hold up. Some structures have more than one record in an assay (separate samples or runs), and their calls can disagree.

Assay: qHTS for inhibitors of binding or entry into cells for Marburg Virus
Conditions: Marburg virus pseudotyped entry inhibition, cell reporter; activity change, negative = inhibition: at 37.8 µM (top of the series) unless noted
% is set by controls: 0 for no effect and ±100 for the full control effect; potency is the fitted concentration of half-maximal effect.

| SMILES | activity change, negative = inhibition | Potency |
| --- | --- | --- |
| O=C(Nc1cccc(NC(=O)c2ccc(Br)o2)n1)c1ccc(Br)o1 | inactive: 15.3% | – |
| N[C@H]1CONC1=O | – | inconclusive: 3.55 µM [inhibitor, partial curve] |
| CN(/N=C/c1ccncc1)c1cnn(-c2ccc(F)c(Cl)c2)c(=O)c1Cl | inactive: -7.07% | – |
| O=C1Nc2ccccc2C12OC1CCCCC1O2 (centres undefined) | inactive: -2.27% | – |
| CCN(CC)CCCn1c2c(c(SCC(=O)Nc3cc(C)on3)nc1=O)CCC2 | – | inconclusive: 11.2 µM [activator, partial curve, poor fit] |
| CC(=O)c1sc2nc(-c3cccs3)cc(C(F)(F)F)c2c1N | inactive: -0.0475% | – |
| Cc1ccc(C(=O)NCC(=O)O)cc1S(=O)(=O)N1CCCCC1 | – | inconclusive: 29.1 µM [activator, single point] |
| O=C(CSc1ccc2nnc(-c3ccccn3)n2n1)Nc1ccc2c(c1)OCO2 | inactive: 4.23% | – |
| COc1ccc(N2CCN(C(c3cc(OC)ccc3OC)c3nnnn3Cc3ccco3)CC2)cc1 (centres undefined) | – | inactive and active: 10 µM |
| Cc1cccc(NC(=O)NC2CCCc3ccccc32)c1 (centres undefined) | – | inconclusive: 20 µM [inhibitor, single point] |
| O=C(NCCc1ccccc1)c1ccc(-c2ccccc2Cl)o1 | – | inconclusive: 2.23 µM [activator, full curve] and inconclusive: 5.17 µM [activator, partial curve, poor fit] |
| COc1ccc(C)cc1NC(=O)CNc1ccccc1CN(C)C1CCCCC1 | – | active: 4.47 µM |
| O=C(Nc1ccc(NC(=O)C2CCCCC2)nc1)c1ccccn1 | – | inconclusive: 22.4 µM [inhibitor, single point] |
| Cc1cc(OC(=O)Cc2cccc3ccccc23)c([N+](=O)[O-])c(=O)[nH]1 | – | inconclusive: 4.47 µM [activator, full curve, poor fit] |
| FC(F)(F)c1cccc(NC(=S)NCc2ccccc2)c1 | inactive: 0.0587% | – |
| CCC(=O)Nc1c(C(=O)N2CCN(c3ccccn3)CC2)cnn1-c1ccc(Cl)cc1 | inactive: -1.99% | – |
| CCCCN(C)CC(O)Cn1cc(/C=C/C(=O)c2ccc(OCC)cc2)c2ccccc21 (centres undefined) | – | inconclusive: 20 µM [inhibitor, single point] |
| COc1ccc(COC(=O)NNC(=O)c2ccc(OC)cc2)cc1 | inactive: 6.98% | – |
| O=c1[nH]c2ccc(NC(=S)Nc3ccccc3)cc2[nH]1 | – | inconclusive: 31.6 µM [activator, single point] |
| c1coc(-c2nnc(-c3ccco3)nn2)c1 | inactive: 16.5% [at 46.1 µM] | – |
| COc1ccc(N(CC(=O)NCc2ccco2)C(=O)CNS(=O)(=O)c2ccc(Cl)cc2)cc1 | – | inconclusive: 11.2 µM [inhibitor, partial curve] |
| CCCCC(=O)Nc1cccc(-c2nc3ccccc3s2)c1 | – | inconclusive: 0.891 µM [activator, full curve, poor fit] |
| C[C@@]12CC[C@H]3[C@@H](CCC4=C(O)C(=O)CC[C@]43C)[C@H]1CCC2=O | inactive: -5.05% | – |

One compound at a time (already shown):
`COc1ccc(N(CC(=O)NCc2ccco2)C(=O)CNS(=O)(=O)c2ccc(Cl)cc2)cc1` in the list: Potency: inconclusive: 11.2 µM [inhibitor, partial curve]
`CCC(=O)Nc1c(C(=O)N2CCN(c3ccccn3)CC2)cnn1-c1ccc(Cl)cc1` in the list: activity change, negative = inhibition: inactive: -1.99%
`Cc1cccc(NC(=O)NC2CCCc3ccccc32)c1` (centres undefined) in the list: Potency: inconclusive: 20 µM [inhibitor, single point]

(next part)

| SMILES | activity change, negative = inhibition | Potency |
| --- | --- | --- |
| CN(CCOc1ccc(Cl)cc1)C(=O)c1cc(-c2ccco2)nc2ccccc12 | – | inconclusive: 28.2 µM [inhibitor, single point] |
| COc1ccc(-c2csc(N3C(=O)C4C5c6ccccc6C(c6ccccc65)C4C3=O)n2)cc1 (centres undefined) | inactive: -3% | – |
| COc1cc(NS(=O)(=O)c2ccc(NC(=O)c3ccco3)cc2)nc(OC)n1 | – | inactive |
| COC(=O)C1=CN(C(C)c2ccccc2)C=C(C(=O)OC)C1c1cc(OC)c(OC)c(OC)c1 (centres undefined) | – | inconclusive: 15.8 µM [inhibitor, single point] |
| O=C(NCc1csc2ccccc12)Nc1cc(Cl)cc(Cl)c1 | – | inconclusive: 35.5 µM [inhibitor, single point] |
| CCCCn1c(N)c(N(CCOC)C(=O)CSc2ccccc2C)c(=O)[nH]c1=O | inactive: 7.83% | – |
| CC(=O)C1=NN(c2ccccc2)C2(S1)S/C(=C\c1ccccc1)C(=O)N2c1ccccc1 (centres undefined) | – | inconclusive: 14.1 µM [inhibitor, single point] |
| Cc1ccc(SCC(=O)Nc2cc(S(=O)(=O)N3CCCCC3)ccc2C)cc1 | – | inconclusive: 0.501 µM [inhibitor, full curve, poor fit] |
| CCOc1cc(/C=N/NC(=O)CSc2nncn2C)ccc1OCc1ccccc1 | inactive: -12.3% | – |
| Cc1nc2ccc(NC(=O)c3cc(Cl)ccn3)cc2s1 | – | inconclusive: 10 µM [inhibitor, partial curve, poor fit] |
| CC1CCN(N=Nc2nc3c([nH]2)c(=O)n(C)c(=O)n3C)CC1 | – | inconclusive: 11.2 µM [activator, partial curve, poor fit] |
| CCOC(=O)c1[nH]c(C)c(C(=O)NCCc2ccccc2)c1C | inactive: -17.8% [at 46.1 µM] | – |
| CC(C)NC(=S)NC(=O)/C=C/c1ccc(F)cc1 | – | inconclusive: 0.1 µM [activator, full curve, poor fit] |
| Cc1nn(-c2ccccc2)c2sc(C(=O)N(CC(=O)NC3CCCC3)Cc3ccco3)cc12 | – | inconclusive: 35.5 µM [inhibitor, partial curve, poor fit] |
| CN1CCN(S(=O)(=O)c2cc(Cl)c(Cl)cc2Cl)CC1 | – | inconclusive: 1.26 µM [activator, single point] |
| O=C(NCc1ccc(Cl)cc1)c1ccc(N2CCCC2=O)cc1 | – | inconclusive: 3.55 µM [inhibitor, partial curve, poor fit] |
| CC(C)C(=O)NC(NC(=S)Nc1ccc(S(N)(=O)=O)cc1)C(Cl)(Cl)Cl (centres undefined) | – | inconclusive: 0.1 µM [activator, full curve, poor fit] |
| FC(F)Oc1ccccc1/C=N/n1cnc2ccccc21 | – | inconclusive: 2.82 µM [inhibitor, full curve, poor fit] |
| CC(C)Cc1nnc(NC(=O)CC(=O)Nc2ccccc2C(=O)O)s1 | – | inconclusive: 35.5 µM [inhibitor, single point] |
| CCCNC(=O)OCCC12CC3CC(CC(C3)C1)C2 | – | inconclusive: 0.794 µM [activator, full curve, poor fit] |
| COc1ccccc1OC(C)C(=O)Nc1ccccc1C(=O)NCC1CCCO1 (centres undefined) | – | inconclusive: 3.16 µM [inhibitor, single point] |
| CCCCc1ccc(NC(=O)CN(C)CC(=O)Nc2ccccc2Cl)cc1 | – | inconclusive: 11.2 µM [inhibitor, partial curve, poor fit] |
| CCCOP(=O)(OCCC)C(Nc1cccc(C(F)(F)F)c1)c1ccc(C)cc1 (centres undefined) | – | inconclusive: 29.1 µM [inhibitor, single point] |

| SMILES | activity change, negative = inhibition | Potency |
| --- | --- | --- |
| Cc1ccc(-n2nnnc2SCCNS(=O)(=O)c2ccccc2)cc1C | – | inconclusive: 11.6 µM [inhibitor, partial curve, poor fit] |
| COc1ccccc1-c1nc(C#N)c(N2CCCCCC2)o1 | – | inconclusive: 29.1 µM [activator, single point] |
| CCCNC(=O)c1ccccc1NC(=O)c1ccc(CSc2ccccc2)cc1 | – | inconclusive: 35.5 µM [inhibitor, single point] |
| COc1cccc(NC(=O)CN2C(=O)NC(c3ccccc3)(c3ccccc3)C2=O)c1 | – | inconclusive: 15.8 µM [inhibitor, single point] |
| Fc1ccc(CSc2ncnc3ccccc23)cc1 | – | inconclusive: 5.62 µM [activator, single point] |
| CCn1c(C(=O)NCc2ccccc2)cc2sc(Cl)cc21 | inactive: 9.67% [at 46.1 µM] | – |
| CN1CCc2c(sc(/N=C/c3cc(Cl)ccc3O)c2C#N)C1 | – | inconclusive: 11.2 µM [activator, partial curve, poor fit] |
| CCCN(CCC)CCNC(=O)Cn1cnc2sc(C)c(S(=O)(=O)N3CCN(c4ccccc4OC)CC3)c2c1=O | inactive: 3.33% [at 46.1 µM] | – |
| O=C(N/N=C1\CCCc2ccccc21)c1ccc([N+](=O)[O-])cc1Cl | inactive: 15.6% | – |
| COc1ccc(NC(=O)c2cccc(OC(F)F)c2)cc1Cl | – | inconclusive: 5.62 µM [activator, partial curve, poor fit] |
| O=C(C[n+]1cccc(CNC(=O)c2ccc(OC(F)F)cc2)c1)Nc1ccc(F)cc1 | inactive: -3.78% | – |
| Cc1cc(C)n2nc(CNS(=O)(=O)c3ccc(F)cc3)nc2n1 | – | inconclusive: 6.31 µM [inhibitor, partial curve, poor fit] |
| CCC(C)(c1nnnn1-c1c(C)cccc1C)N(N=O)c1ccccc1Cl (centres undefined) | – | inconclusive: 3.55 µM [inhibitor, full curve, poor fit] |
| CCc1ccc(CN2CCCC(C(=O)N3CCCCC3)C2)cc1 (centres undefined) | – | inconclusive: 10 µM [inhibitor, partial curve] |
| Clc1nc(Nc2ccccc2)nc(Nc2ccccc2)n1 | – | inconclusive: 35.5 µM [inhibitor, single point] |
| COc1ccc(CCNc2nc(N3CCOCC3)nc(N3CCOCC3)n2)cc1OC | – | inactive |
| C[C@]12CCC(=O)C=C1CC[C@@H]1C2[C@@H](O)C[C@@]2(C)[C@H]1CC[C@]2(O)C(=O)COC(=O)CCC(=O)O (some centres undefined) | – | inconclusive: 0.794 µM [inhibitor, single point] |
| CN(C(=O)c1cccs1)c1ccccc1C(=O)O | inactive: 32.7% | – |
| O=[N+]([O-])c1cc(S(=O)(=O)Oc2ccccc2)ccc1Cl | – | inconclusive: 35.5 µM [inhibitor, single point] |
| CCC(C)NC(=O)CSc1nc2ccsc2c(=O)n1NC(=O)c1ccccc1 (centres undefined) | – | inconclusive: 29.1 µM [activator, single point] |
| COc1ccnc(CSC(N)=Nc2ccccc2OC)c1 | inactive: 12.2% | – |
| C=C(C)CSc1nncn1/N=C/c1ccc(OC)cc1 | – | inconclusive: 16.4 µM [activator, partial curve] |
| CCOC(=O)n1c(=O)n(Cc2ccc(Cl)cc2Cl)c2ccccc21 | – | inconclusive: 6.31 µM [activator, single point] |
